Literature values as cited in patent US20210392935A1, “PREPARATION COMPRISING A PROBIOTIC STRAIN OF THE GENUS BACILLUS MEGATERIUM AND A POLYUNSATURATED FATTY ACID COMPONENT” (Evonik Operations GmbH, priority 2018, published 2021).

Conditions: human breast milk [42]; cited from earlier work

Compound	content in human breast milk
CC/C=C\C[C@H](O)/C=C/C=C\C=C\C=C\[C@@H](O)[C@@H](O)C/C=C\CCC(=O)O [RvD1, resolvin D1]	~10.000 pg/mL
CC[C@@H](O)/C=C/C=C\C[C@@H](O)/C=C/C=C/C=C\[C@@H](O)CCCC(=O)O [RvE1, resolvin E1]	~6.000 pg/mL
